*: point of attachment. Decanoyl = CCCCCCCCCC(=O)*

A short description of data set [1]: general procedure: Fmoc solid-phase peptide synthesis; Wang; TBTU/HOBt/DIPEA; HBTU/HOBt/DIPEA. To be noted: whole synthesis, scale 0.0228 mmol.
A short description of data set [2]: general procedure: Fmoc solid-phase peptide synthesis; PEG-PS; TBTU/HOBt/DIPEA; HBTU/HOBt/DIPEA. To be noted: whole synthesis, scale 0.0760 mmol.

Decanoyl-LTNTAKAESKIDD-OH: the crude mass in data set [1] turned out to be 37.1 mg.
Ac-LLLTNTAKAASKIDD-OH showed a crude mass in data set [2] of 99.3 mg.

The values are drawn from patent publication US20040024178A1 (priority 1999, published 2004).
